CoaBC: 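Coenzyme A biosynthesis protein CoaBC, Mycobacterium tuberculosis (UniProt P9WNZ1). Enzyme assay of CoaBC with a phosphate dye (Biomol Green) read at 650 nm. Compounds at 30 µM. Higher reads as stronger inhibition, judged from the few compounds that gave an IC50. Most strong results did not repeat in a second test. About 67,000 compounds were tested under these conditions; 0.06% (about 40) showed 50% or more at least once.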
Pks13 thioesterase: 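Enzyme assay of the thioesterase domain of polyketide synthase 13; the read-out is not stated. Target: Polyketide synthase Pks13, Mycobacterium tuberculosis (UniProt I6X8D2). Tested at 30 µM. The record gives no direction; the compounds picked for IC50 retests had high values, so higher reads as stronger inhibition. About 67,000 compounds were tested under these conditions; 0.46% (about 300) showed 50% or more at least once.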
MtTrpRS: 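Enzyme assay of tryptophanyl-tRNA synthetase; the read-out is not stated. Target: Tryptophan-tRNA ligase, Mycobacterium tuberculosis (UniProt P9WFT3). Concentration: 10 µM. Higher most likely means stronger inhibition; the record gives no direction and few retests gave an IC50. Of about 65,000 compounds tested this way, about 64 (0.098%) reached 50% or more in at least one test.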
LiHisRS: 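Histidine-tRNA ligase, Leishmania infantum (UniProt A4I591). Enzyme assay of histidyl-tRNA synthetase; the read-out is not stated. Tested at 30 µM. The record gives no direction; compounds that gave an IC50 in retests scored well above the rest, so higher reads as stronger inhibition. The assay is labelled LdHisRS but filed under L. infantum. Of about 69,000 compounds tested this way, about 410 (0.6%) reached 50% or more in at least one test.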

Sequences of proteins named here, by UniProt entry; tags and fusion partners are left off. Residues count along the entry.
UniProt P9WNZ1, whole entry: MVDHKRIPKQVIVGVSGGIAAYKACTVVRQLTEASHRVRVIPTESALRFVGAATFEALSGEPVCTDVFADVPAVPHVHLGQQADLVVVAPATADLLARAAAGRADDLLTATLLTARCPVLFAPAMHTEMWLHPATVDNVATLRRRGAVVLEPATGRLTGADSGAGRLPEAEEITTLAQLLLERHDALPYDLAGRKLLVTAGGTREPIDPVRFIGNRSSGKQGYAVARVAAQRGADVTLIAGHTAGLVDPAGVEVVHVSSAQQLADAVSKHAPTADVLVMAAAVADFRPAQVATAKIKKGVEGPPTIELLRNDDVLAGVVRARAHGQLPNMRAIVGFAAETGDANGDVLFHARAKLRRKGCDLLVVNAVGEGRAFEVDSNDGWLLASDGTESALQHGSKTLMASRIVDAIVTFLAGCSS
UniProt I6X8D2, whole entry: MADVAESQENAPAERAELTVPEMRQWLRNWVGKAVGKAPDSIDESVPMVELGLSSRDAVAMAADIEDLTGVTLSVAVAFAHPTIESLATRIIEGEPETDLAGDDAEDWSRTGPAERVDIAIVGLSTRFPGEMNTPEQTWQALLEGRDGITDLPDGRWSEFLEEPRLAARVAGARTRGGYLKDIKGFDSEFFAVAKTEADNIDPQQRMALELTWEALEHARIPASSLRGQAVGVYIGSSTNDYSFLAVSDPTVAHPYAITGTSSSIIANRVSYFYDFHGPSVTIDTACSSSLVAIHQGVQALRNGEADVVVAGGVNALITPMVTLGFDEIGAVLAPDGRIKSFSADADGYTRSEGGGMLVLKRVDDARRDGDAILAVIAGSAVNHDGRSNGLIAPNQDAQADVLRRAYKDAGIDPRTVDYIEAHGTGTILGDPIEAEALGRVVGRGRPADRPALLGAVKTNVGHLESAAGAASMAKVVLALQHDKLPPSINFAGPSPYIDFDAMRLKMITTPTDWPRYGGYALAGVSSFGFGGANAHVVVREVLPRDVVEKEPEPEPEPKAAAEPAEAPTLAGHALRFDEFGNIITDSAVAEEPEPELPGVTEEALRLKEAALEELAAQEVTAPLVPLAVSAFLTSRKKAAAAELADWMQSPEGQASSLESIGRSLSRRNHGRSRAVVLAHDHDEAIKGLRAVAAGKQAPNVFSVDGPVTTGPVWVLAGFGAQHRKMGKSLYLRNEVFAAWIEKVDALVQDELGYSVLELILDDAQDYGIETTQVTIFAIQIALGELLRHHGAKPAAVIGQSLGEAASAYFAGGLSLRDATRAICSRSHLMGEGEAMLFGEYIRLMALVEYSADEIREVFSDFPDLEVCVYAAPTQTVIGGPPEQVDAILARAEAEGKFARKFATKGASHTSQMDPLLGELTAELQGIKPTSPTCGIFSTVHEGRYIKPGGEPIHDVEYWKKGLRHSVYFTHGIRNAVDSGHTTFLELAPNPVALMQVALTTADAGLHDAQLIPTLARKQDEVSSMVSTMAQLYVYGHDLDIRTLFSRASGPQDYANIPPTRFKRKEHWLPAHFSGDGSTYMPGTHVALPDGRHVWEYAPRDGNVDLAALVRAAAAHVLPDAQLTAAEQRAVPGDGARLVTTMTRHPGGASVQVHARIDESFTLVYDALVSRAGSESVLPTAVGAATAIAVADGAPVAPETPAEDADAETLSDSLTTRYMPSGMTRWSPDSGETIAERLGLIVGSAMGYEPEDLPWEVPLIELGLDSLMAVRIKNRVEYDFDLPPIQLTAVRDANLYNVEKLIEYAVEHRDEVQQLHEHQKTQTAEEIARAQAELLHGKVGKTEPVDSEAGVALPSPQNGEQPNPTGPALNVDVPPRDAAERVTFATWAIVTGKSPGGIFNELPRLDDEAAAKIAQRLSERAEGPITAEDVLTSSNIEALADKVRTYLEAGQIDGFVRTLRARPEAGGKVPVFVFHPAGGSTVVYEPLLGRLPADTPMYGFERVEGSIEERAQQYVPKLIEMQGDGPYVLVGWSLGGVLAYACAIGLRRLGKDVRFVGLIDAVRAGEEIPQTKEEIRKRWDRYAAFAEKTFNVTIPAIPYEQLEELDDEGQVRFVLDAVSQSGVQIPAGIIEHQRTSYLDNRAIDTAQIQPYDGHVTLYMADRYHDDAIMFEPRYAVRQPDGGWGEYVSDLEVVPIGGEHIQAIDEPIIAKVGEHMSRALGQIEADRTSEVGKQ
UniProt P9WFT3, whole entry: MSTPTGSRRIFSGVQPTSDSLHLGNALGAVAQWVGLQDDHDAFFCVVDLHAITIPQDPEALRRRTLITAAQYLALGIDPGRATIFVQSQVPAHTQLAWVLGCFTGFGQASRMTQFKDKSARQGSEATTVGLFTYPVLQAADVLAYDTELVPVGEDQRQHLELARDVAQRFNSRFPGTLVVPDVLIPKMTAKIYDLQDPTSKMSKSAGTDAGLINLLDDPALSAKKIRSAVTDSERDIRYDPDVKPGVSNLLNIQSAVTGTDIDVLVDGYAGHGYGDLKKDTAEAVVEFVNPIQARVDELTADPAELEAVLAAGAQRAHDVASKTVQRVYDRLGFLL
UniProt A4I591, 1-473: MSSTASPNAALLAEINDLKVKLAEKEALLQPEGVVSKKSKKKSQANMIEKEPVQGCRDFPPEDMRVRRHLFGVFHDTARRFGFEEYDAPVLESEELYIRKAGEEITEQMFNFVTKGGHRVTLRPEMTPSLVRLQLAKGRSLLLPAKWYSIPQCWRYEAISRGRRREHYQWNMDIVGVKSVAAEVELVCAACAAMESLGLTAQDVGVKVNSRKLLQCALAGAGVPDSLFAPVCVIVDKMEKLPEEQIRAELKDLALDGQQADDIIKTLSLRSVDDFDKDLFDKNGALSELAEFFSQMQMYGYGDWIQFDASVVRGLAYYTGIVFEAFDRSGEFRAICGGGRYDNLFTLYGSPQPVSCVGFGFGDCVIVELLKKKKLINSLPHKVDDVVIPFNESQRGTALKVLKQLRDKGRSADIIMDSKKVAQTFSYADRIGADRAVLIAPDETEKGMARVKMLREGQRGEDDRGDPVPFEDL

Each number is a percent effect as filed.
How 0% and 100% were set is not recorded. Most values in the screen are low, and negative values occur.
Compounds were drawn at random from those tested, without regard to their results.

{"smiles": "CC(=O)NCCSCCOc1cccc(Br)c1", "CoaBC": -4.177, "Pks13 thioesterase": -5.384, "MtTrpRS": -2.564, "LiHisRS": -6.452}
{"smiles": "CCC(Nc1nc(C(C)C)nc2c1cnn2C)c1ccncc1", "stereo": "centres undefined", "CoaBC": -4.225, "Pks13 thioesterase": -26.14, "MtTrpRS": -3.445, "LiHisRS": 10.26}
{"smiles": "CCOC(CC)C(=O)NCCC(=O)N1CCN(c2ncccn2)CC1", "stereo": "centres undefined", "CoaBC": 6.073, "Pks13 thioesterase": -36.98, "MtTrpRS": -4.555, "LiHisRS": 8.571}
{"smiles": "Cn1cnc2cc(CCC(=O)Nc3n[nH]c(C4CCCO4)n3)ccc21", "stereo": "centres undefined", "CoaBC": -16.93, "Pks13 thioesterase": -14.09, "MtTrpRS": 0.0809, "LiHisRS": 12.36}
{"smiles": "CC1CCCCN1S(=O)(=O)NCc1cccnc1OC1CCCC1", "stereo": "centres undefined", "CoaBC": 2.206, "Pks13 thioesterase": -14.48, "MtTrpRS": 0.2469, "LiHisRS": 15.56}
{"smiles": "COc1ccnc(N2CCN(CC(=O)N3CCOC(C)C3)CC2)n1", "stereo": "centres undefined", "CoaBC": -0.3911, "Pks13 thioesterase": -1.155, "MtTrpRS": 1.12, "LiHisRS": 9.649}
{"smiles": "CNc1ncc(CN(C)CCN2CCCCC2)cn1", "CoaBC": -8.712, "Pks13 thioesterase": -10.16, "MtTrpRS": 9.117, "LiHisRS": -2.837}
{"smiles": "CCc1nnc(C2Cc3ccccc3CN2Cc2cc(C)on2)o1", "stereo": "centres undefined", "CoaBC": 0.2484, "Pks13 thioesterase": -11.22, "MtTrpRS": -3.138, "LiHisRS": 9.524}
{"smiles": "O=C(Nc1nncs1)N1CCCN(C2CCCCC2)CC1", "CoaBC": -0.2475, "Pks13 thioesterase": -2.847, "MtTrpRS": 1.037, "LiHisRS": 10}
{"smiles": "Cc1nc(CN2CCO[C@@H]3CN(C(=O)CN(C)C)CC[C@@H]3C2)cs1", "CoaBC": -33.61, "Pks13 thioesterase": -7.038, "MtTrpRS": -2.79, "LiHisRS": 14.55}
{"smiles": "Cc1nn(C)c2c(=O)n(CC(=O)NC3CCCCC3)ccc12", "CoaBC": -0.6017, "Pks13 thioesterase": -9.58, "MtTrpRS": -1.321, "LiHisRS": 11.24}
{"smiles": "O=C(Cc1cccnc1)N1CCCC2(CCN(CC3CCOCC3)C2)C1", "stereo": "centres undefined", "CoaBC": 4.034, "Pks13 thioesterase": -3.831, "MtTrpRS": -0.08374, "LiHisRS": 2.655}
{"smiles": "CNC(=O)[C@H]1C[C@@H]2CN(C(=O)c3ccsc3)C[C@@H]2N1S(C)(=O)=O", "CoaBC": -2.096, "Pks13 thioesterase": -14.1, "MtTrpRS": -8.777, "LiHisRS": 9.722}
{"smiles": "COc1ccc(-c2nc(CN3CC(n4cccn4)C3)no2)cc1", "CoaBC": 1.269, "Pks13 thioesterase": -14.81, "MtTrpRS": 0.8393, "LiHisRS": 17.65}
{"smiles": "Cc1ccc(N2C[C@H](O)[C@@H](N3CCN(c4ccccn4)CC3)C2)nn1", "CoaBC": 8.193, "Pks13 thioesterase": -9.315, "MtTrpRS": 4.417, "LiHisRS": 21.51}
{"smiles": "CC(C)c1cc(C2CCCN2C(=O)CN2C(=O)OC(C)(C)C2=O)no1", "stereo": "centres undefined", "CoaBC": -3.14, "Pks13 thioesterase": -1.127, "MtTrpRS": 6.021, "LiHisRS": 20.41}

The last 2 entries again:

Result for Cc1ccc(N2C[C@H](O)[C@@H](N3CCN(c4ccccn4)CC3)C2)nn1 was CoaBC: 8.193%; Pks13 thioesterase: -9.315%; MtTrpRS: 4.417%; LiHisRS: 21.51%.
Result for CC(C)c1cc(C2CCCN2C(=O)CN2C(=O)OC(C)(C)C2=O)no1 (centres undefined) was CoaBC: -3.14%; Pks13 thioesterase: -1.127%; MtTrpRS: 6.021%; LiHisRS: 20.41%.

Measurements from “University of Dundee, Small-Polar-MMV Screening Library” (2021), ChEMBL document CHEMBL3988442.